## Results of single-concentration screens

By UniProt entry, the sequences of proteins in these tests, tags left out.
UniProt P9WFT3, whole entry: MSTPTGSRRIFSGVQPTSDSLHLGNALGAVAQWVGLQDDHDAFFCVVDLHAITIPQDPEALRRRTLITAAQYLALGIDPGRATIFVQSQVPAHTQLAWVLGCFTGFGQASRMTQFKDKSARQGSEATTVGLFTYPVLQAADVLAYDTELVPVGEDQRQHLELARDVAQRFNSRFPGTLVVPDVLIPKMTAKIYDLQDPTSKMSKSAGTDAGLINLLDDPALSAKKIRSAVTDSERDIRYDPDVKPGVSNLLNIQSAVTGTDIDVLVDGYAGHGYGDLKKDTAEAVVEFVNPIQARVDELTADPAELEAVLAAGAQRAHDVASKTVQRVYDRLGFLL
UniProt P9WPC5, whole entry: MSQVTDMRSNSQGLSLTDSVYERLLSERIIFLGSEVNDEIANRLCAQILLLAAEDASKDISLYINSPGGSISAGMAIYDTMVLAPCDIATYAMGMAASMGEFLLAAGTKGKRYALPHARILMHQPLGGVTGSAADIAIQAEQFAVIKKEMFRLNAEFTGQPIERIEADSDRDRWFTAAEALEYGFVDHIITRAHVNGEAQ
UniProt P9WPC3, whole entry partner: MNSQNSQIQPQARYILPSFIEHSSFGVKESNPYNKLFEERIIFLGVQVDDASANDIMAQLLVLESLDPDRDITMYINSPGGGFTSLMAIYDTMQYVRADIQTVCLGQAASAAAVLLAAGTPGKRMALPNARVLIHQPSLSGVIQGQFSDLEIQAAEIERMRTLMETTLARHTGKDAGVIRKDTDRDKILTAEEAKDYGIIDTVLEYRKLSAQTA
UniProt P9WNZ1, whole entry: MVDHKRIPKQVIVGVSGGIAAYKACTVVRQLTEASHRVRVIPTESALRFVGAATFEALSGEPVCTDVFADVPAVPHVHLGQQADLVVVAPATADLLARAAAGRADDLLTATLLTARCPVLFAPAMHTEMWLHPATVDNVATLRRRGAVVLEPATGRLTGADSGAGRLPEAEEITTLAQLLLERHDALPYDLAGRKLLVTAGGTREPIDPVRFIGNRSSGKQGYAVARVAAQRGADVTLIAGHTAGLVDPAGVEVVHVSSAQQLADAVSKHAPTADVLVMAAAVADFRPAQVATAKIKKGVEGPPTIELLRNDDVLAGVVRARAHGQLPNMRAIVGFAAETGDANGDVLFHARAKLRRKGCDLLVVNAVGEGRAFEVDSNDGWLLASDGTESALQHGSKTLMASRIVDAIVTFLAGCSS
UniProt I6X8D2, whole entry: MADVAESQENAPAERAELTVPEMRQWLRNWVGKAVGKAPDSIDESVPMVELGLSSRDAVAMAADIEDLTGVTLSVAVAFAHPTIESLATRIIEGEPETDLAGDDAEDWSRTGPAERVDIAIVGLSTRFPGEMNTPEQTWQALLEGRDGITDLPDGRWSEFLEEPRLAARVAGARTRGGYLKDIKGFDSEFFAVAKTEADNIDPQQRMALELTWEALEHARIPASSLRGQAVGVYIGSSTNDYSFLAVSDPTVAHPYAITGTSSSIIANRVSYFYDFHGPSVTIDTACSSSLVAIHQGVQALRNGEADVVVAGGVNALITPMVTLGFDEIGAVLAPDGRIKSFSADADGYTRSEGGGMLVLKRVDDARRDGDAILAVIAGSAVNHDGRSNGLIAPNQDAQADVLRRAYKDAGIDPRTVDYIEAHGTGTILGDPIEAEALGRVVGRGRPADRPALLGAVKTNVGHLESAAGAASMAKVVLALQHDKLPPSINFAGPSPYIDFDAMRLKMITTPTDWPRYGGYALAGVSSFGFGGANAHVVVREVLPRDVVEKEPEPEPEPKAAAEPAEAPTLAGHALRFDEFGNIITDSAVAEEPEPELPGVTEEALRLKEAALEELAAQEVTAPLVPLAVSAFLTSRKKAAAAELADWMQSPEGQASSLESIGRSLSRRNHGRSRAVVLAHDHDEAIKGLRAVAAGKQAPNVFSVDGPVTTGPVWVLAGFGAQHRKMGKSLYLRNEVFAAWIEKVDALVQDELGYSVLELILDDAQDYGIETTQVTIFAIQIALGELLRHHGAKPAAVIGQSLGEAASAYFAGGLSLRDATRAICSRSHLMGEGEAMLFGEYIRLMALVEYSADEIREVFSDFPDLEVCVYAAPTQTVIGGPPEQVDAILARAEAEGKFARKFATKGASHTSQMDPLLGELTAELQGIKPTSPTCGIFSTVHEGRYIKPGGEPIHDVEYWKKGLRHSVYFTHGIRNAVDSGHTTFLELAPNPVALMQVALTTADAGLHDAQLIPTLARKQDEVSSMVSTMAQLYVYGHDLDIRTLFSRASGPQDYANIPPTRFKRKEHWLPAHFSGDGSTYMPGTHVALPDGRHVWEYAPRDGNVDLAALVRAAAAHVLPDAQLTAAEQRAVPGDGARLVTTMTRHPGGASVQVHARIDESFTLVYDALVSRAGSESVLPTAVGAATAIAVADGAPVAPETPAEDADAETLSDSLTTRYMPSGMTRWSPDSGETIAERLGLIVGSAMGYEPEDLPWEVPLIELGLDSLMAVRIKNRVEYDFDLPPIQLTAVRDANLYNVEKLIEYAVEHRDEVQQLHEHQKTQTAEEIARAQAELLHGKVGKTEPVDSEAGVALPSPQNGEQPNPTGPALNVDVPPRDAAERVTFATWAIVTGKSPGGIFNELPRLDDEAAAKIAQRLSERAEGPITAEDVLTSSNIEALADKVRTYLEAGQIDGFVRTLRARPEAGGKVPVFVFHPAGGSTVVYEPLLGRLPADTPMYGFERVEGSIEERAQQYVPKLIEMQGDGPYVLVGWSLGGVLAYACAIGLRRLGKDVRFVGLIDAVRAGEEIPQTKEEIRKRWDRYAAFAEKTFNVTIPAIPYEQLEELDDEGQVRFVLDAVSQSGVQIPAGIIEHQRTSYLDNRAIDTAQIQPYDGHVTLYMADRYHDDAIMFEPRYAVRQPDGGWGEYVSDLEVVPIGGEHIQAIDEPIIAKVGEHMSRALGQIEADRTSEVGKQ

A: 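Enzyme assay of tryptophanyl-tRNA synthetase; the read-out is not stated. Target: Tryptophan-tRNA ligase, Mycobacterium tuberculosis (UniProt P9WFT3). Compounds at 10 µM. Higher most likely means stronger inhibition; the record gives no direction and few retests gave an IC50. About 65,000 compounds were tested under these conditions; 0.098% (about 64) showed 50% or more at least once.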
B: 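Assay of Toxoplasma gondii numbers, read through their beta-galactosidase reporter with a colour substrate. Tested at 10 µM. Higher reads as fewer parasites (inferred from which compounds were picked for retests). Of about 67,000 compounds tested this way, about 260 (0.38%) reached 50% or more in at least one test.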
C: 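ClpP1P2, Mycobacterium tuberculosis (UniProt P9WPC5 and UniProt P9WPC3). Protease assay of ClpP1P2, read by the AMC dye that it sets free. Concentration: 50 µM. Higher reads as stronger inhibition, judged from the few compounds that gave an IC50. Most other retested compounds had strongly negative values. Of about 69,000 compounds tested this way, about 10 (0.015%) reached 50% or more in at least one test.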
D: 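Enzyme assay of CoaBC with a phosphate dye (Biomol Green) read at 650 nm. Target: Coenzyme A biosynthesis protein CoaBC, Mycobacterium tuberculosis (UniProt P9WNZ1). Compounds at 30 µM. Higher reads as stronger inhibition, judged from the few compounds that gave an IC50. Most strong results did not repeat in a second test. Of about 67,000 compounds tested this way, about 40 (0.06%) reached 50% or more in at least one test.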
E: 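Polyketide synthase Pks13, Mycobacterium tuberculosis (UniProt I6X8D2). Enzyme assay of the thioesterase domain of polyketide synthase 13; the read-out is not stated. Compounds at 30 µM. The record gives no direction; the compounds picked for IC50 retests had high values, so higher reads as stronger inhibition. About 67,000 compounds were tested under these conditions; 0.46% (about 300) showed 50% or more at least once.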

Values are the deposited “Percent Effect”, in %.
The controls that fix the scale are not given in the record; negative values are as filed.
Compounds were drawn at random from those tested, without regard to their results.

SMILES: CCOC(=O)NC(CNC(=O)c1cn(C)cn1)CC(C)C (configuration not stated)
A: 1.143%
B: 1.565%
C: -1.539%
D: 11.16%
E: -48.84%

SMILES: COc1ccccc1-n1c(C)cc(CNC(=O)NC(C)C)c1C
A: 2.249%
B: 14.33%
C: -4.638%
D: -2.785%
E: 0.2331%

SMILES: CCCC(O)CN1CC(C)(C)CN(C(=O)c2ccc(SC)cc2)CC1=O (configuration not stated)
B: -14.52%
C: -1.953%
D: -0.8589%
E: -4.764%

SMILES: Cc1cccc(N2CCN(CCC(=O)NCc3nnc[nH]3)CC2)c1
A: -4.907%
B: 12.12%
C: -5.726%
D: 0%
E: -19.75%

SMILES: O=C(O)C(F)(F)F.O=C(O)C(F)(F)F.[H][C@@]12CCN(Cc3ccsc3)C[C@]1([H])[C@@H](CN1CCOCC1)OC2
B: 6.907%

SMILES: O=C([C@@H]1COC[C@H]2CN(C3CCCC3)C[C@H]21)N1CCCO1
A: -1.394%
C: -8.942%
D: -5.484%
E: -43.95%

SMILES: CC(NC(=O)NCCCc1n[nH]c(N)c1C#N)c1ccccc1F (configuration not stated)
A: -5.501%
B: -21.01%
C: -28.47%
D: 1.575%
E: -4.35%

SMILES: O[C@@H]1C[C@@H](c2nc(-c3ccccc3)no2)N(C2CCOCC2)C1
A: -0.9863%
B: 14.06%
C: 0.9708%
D: 14.79%
E: -37.97%

SMILES: O=C(NCc1ccccc1F)NC1CCCN(c2ncccn2)C1 (configuration not stated)
A: -2.308%
B: -1.459%
C: -4.389%
D: 2.316%
E: 12.08%

SMILES: CCOc1ccc(CNC(C)c2c(C)nn(C)c2C)cc1 (configuration not stated)
A: 9.928%
B: 4.245%
C: 6.193%
D: 7.582%
E: 8.654%

SMILES: [H][C@]12CC[C@]([H])(CN(c3ncccn3)C1)N(CC=C(C)C)C2=O
B: -16.05%

SMILES: Cc1nnc([C@@H]2CC[C@@H]3[C@@H](CCN3C3CCC3)O2)o1
A: -0.9017%
C: -1.77%
D: -5.499%
E: -27.1%

SMILES: CC(C)c1noc(CCC(=O)N2CCN(C)CC2c2ccccc2)n1 (configuration not stated)
A: 1.589%
B: 10.21%
C: -5.649%
D: 7.683%
E: -1.819%

SMILES: COc1coc(C(=O)Nc2nc(-c3cccnc3)cs2)cc1=O
A: -0.4531%
B: -12.01%
C: -4.043%
D: 1.687%
E: 1.345%

SMILES: Cc1noc(C)c1C[S+]([O-])Cc1cn2cccc(C)c2n1 (configuration not stated)
A: -0.7597%
B: -0.4545%
C: -4.069%
D: -15.56%
E: -4.095%

SMILES: CN1CCC2(Cc3ccccc3CN(C(=O)Cc3cccc(Cl)c3)C2)C1 (configuration not stated)
A: 10.8%
B: 36.5%
C: -4.608%
D: -0.2632%
E: -40.77%

SMILES: CCC(=O)N1CCN(C(=O)CCn2cccn2)CC1
A: 0.4859%
B: 0.4308%
C: 15.55%
D: 5.734%
E: -11.94%

SMILES: CS(=O)(=O)N1CCOCC12CCN(Cc1ccoc1)CC2
B: 20.72%
C: 0.4362%
D: -3.659%
E: -4.722%

SMILES: Cn1cc(C(=O)Nc2ccc3c(c2)CN(C(=O)C2CC2)CC3)nn1
A: -5.089%
B: 2.773%
C: -3.558%
D: -6.983%
E: -11.75%

SMILES: COc1ccc(Br)cc1SCCCS(C)(=O)=O
A: 2.452%
B: -10.8%
C: -3.726%
D: 4.377%
E: -0.07078%

SMILES: CN1CCOC(CNC(=O)Cc2ccccc2F)C1 (configuration not stated)
A: -4.529%
B: -25.04%
C: 14.77%
D: 1.813%
E: -13.05%

SMILES: CCOC(=O)c1sc(NC(=O)CN(C)S(C)(=O)=O)c(C#N)c1C
A: 1.213%
B: -2.772%
C: -11.99%
D: 2.155%
E: -6.713%

SMILES: O=C1COC2(CCN(CC3CCC3)CC2)CN1c1cncnc1
A: 1.66%
C: 16.32%
D: -2.256%
E: 14.19%

SMILES: O=C(Cn1ccc2ccc(F)cc21)NC[C@@H]1CCCN2CCCC[C@H]12
A: -3.266%
C: -6.552%
D: -1.09%
E: -13.03%

SMILES: O=C(O)C(F)(F)F.O=C(c1nc2c(o1)CN(CC1CCC1)C2)N1CCCC1
B: -1.755%

Once more, the final 2:

* O=C(Cn1ccc2ccc(F)cc21)NC[C@@H]1CCCN2CCCC[C@H]12 : A: -3.266%; C: -6.552%; D: -1.09%; E: -13.03%
* O=C(O)C(F)(F)F.O=C(c1nc2c(o1)CN(CC1CCC1)C2)N1CCCC1 : B: -1.755%

Measurements from “University of Dundee, Small-Polar-MMV Screening Library” (2021), ChEMBL document CHEMBL3988442.